Measured values as given in publication PMC2614472.
Results are given in words; binding and its absence hold for the method and conditions named. In cells and extracts the contact can be indirect. A yes stands for co-enrichment or nearness to the bait. Other partners may have been found. Sequences can lack the tags named with a protein.

How the values were obtained:
[1] = molecular target: T1, GST-dysbindin-1 (mouse) (mouse) (UniProt Q91WZ8); assay: affinity purification with mass spectrometry; GST-dysbindin-1 (mouse) on glutathione Sepharose 4B incubated 3 h at 4°C with precleared mouse skeletal muscle homogenate in lysis buffer; specific CBB bands identified by MALDI-TOF-MS; only the target purified
T1 sequence: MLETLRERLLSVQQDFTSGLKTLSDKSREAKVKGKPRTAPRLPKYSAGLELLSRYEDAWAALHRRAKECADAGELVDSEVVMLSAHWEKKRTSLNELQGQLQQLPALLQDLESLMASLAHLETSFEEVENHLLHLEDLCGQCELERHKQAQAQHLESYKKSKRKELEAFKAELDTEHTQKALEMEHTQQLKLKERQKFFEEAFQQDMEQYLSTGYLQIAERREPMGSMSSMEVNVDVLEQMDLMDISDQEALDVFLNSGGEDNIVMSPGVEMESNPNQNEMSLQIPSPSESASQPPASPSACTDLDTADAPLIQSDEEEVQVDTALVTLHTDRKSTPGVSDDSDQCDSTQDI

[2] = molecular target: T2, GST-dysbindin-1 (human, isoform A) (human) (UniProt Q96EV8); assay: affinity purification with mass spectrometry; GST or GST-dysbindin-1 (human isoform A) on glutathione Sepharose 4B incubated 3 h at 4°C with precleared SH-SY5Y lysate (50 mM Tris-HCl pH 7.5, 150 mM NaCl, 1 mM EDTA, 1% Triton X-100); four washes; SDS-PAGE, CBB bands identified by MALDI-TOF-MS peptide mass fingerprinting; only the target …
T2 sequence: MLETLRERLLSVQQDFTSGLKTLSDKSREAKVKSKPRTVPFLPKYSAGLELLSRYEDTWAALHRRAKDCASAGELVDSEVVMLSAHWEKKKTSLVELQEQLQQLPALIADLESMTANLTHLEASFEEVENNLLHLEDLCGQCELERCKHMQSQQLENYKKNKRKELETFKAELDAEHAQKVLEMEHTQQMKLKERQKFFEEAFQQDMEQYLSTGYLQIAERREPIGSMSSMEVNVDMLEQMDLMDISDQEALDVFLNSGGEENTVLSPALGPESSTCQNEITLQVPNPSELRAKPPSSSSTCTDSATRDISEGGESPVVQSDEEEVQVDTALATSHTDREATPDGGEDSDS

[3] = molecular target: T1, GST-dysbindin-1 (mouse) (mouse); assay: affinity purification with mass spectrometry; GST-dysbindin-1 (mouse) on glutathione Sepharose 4B incubated 3 h at 4°C with precleared mouse brain homogenate in lysis buffer; specific CBB bands identified by MALDI-TOF-MS; only the target purified

B1: Hadhb (mouse) (protein, UniProt Q99JY0 35-475)
chain: SAPAVQTKSKKTLAKPNMKNIVVVEGVRIPFLLSGTSYKDLMPHDLARAALSGLLHRTNIPKDVVDYIIFGTVIQEVKTSNVAREAALGAGFSDKTPAHTVTMACISSNQAMTTAVGLIASGQCDVVVAGGVELMSDVPIRHSRNMRKMMLDLNKAKTLGQRLSLLSKFRLNFLSPELPAVAEFSTNETMGHSADRLAAAFAVSRMEQDEYALRSHSLAKKAQDEGHLSDIVPFKVPGKDTVTKDNGIRPSSLEQMAKLKPAFIKPYGTVTAANSSFLTDGASAMLIMSEDRALAMGYKPKAYLRDFIYVSQDPKDQLLLGPTYATPKVLEKAGLTMNDIDAFEFHEAFSGQILANFKAMDSDWFAQNYMGRKTKVGSPPLEKFNIWGGSLSLGHPFGATGCRLVMAAANRLRKDGGQYALVAACAAGGQGHAMIVEAYPK
binding [1]: binds

B2: Dapk1 (mouse) (protein, UniProt Q80YE7-2 1-1430)
chain: MTVFRQENVDDYYDTGEELGSGQFAVVKKCREKSTGLQYAAKFIKKRRTKSSRRGVSREDIEREVSILKEIRHPNVITLHEVYENKTDVILILELVAGGELFDFLAEKESLTEEEATEFLKQILSGVYYLHSLQIAHFDLKPENIMLLDRNVPKPRIKIIDFGLAHKIDFGNEFKNIFGTPEFVAPEIVNYEPLGLEADMWSIGVITYILLSGASPFLGDTKQETLANVSAVNYDFEEEFFRNTSTLAKDFIRRLLVKDPKKRMTIQDSLQHPWIKPKDTQQALSRKASAVNMEKFKKFAARKKWKQSVRLISLCQRLSRSFLSRSNMSVARSDDTLDEEDSFVMKAIIHAINDDNVPGLQHLLGSLSSYDVNQPNKHGTPPLLIAAGCGNIQMLQLLIKRGSRIDVQDKGGSNAIYWASRHGHVDTLKFLNENKCPLDVKDKSGETALHVAARYGHADVVQLLCSFGSNPDFQDKEEETPLHCAAWHGYYSVAKALCEVGCNVNIKNREGETPLLTASARGYHDIVECLAEHGADLNASDKDGHIALHLAVRRCQMEVIKTLLGHGSFVDFQDRHGNTPLHVACKDGSAPIVVALCEASCNLDISNKYGRTPLHLAANNGILDVVRYLCLMGANVEALTSDGKTAEDLAKAEQHEHVAGLLARLRKDTHRGLFIQQLRPTQNLQPRIKLKLFGHSGSGKSTLVESLKCGLLRSFFRRRRPRLSSTNSTRFPPSPLAAKPTVSVSINNLYPGCENVSVRSRSMMFEPGLTKGMLEVFVAPSHHLHCSTDDQSTKAIDIQNAYLNGVGDFSVWEFSGNPVYFCCYDYFAANDPTSIHIIVFSLEEPYEIQLNQVIFWLSFLKSLVPVEEPIAFGGKLKNPLRVVLVATHADIMNIPRPAGGEFGYDKDTSLLKEIRNRFGNDLHVSNKLFVLDAGASGSKDIKVLRNHLQEIRSQIVSGCSPMTHLCEKIISTLPSWRKLNGPNQLMSLQQFVYDVQDQLNPLASEDDLRRIAQQLHSTGEINIMQSETVQDVLLLDPRWLCTNVLGKLLSVETPRALHHYRGRYTMEDIQRLVPDSDVEELLQILDAMDICARDLSSGTMVDIPALIKTDSLQRSWADEEDEVMVYGGVRIVPVEHLTPFPCGIFHKVQVNLCRWIHQQSAEGDADIRLWVSGCRIANRGAELLVLLVNHGQGIEVQVRGLETEKIKCCLLLDSVCSTIETVMATTLPGLLTVKHYLSPQQLREHHEPVMVYQPRDFFRAQTLKESSLTNTMGGYKESFSSITCFGCHDVYSQASLGMDIHASDLSLLTRRKLSRLLDPPDPMGKDWCLLAMNLGLPDMVAKHNVNNRASRDFLPSPVHALLQEWTSYPESTVGILISKLRELGRRDAADFLLKASSVFKINLDGNGQEAYASSCNSGTSYNSISSVVSR
binding [1]: binds

B3: Slc25a4 (mouse) (protein, UniProt P48962 1-298)
chain: MGDQALSFLKDFLAGGIAAAVSKTAVAPIERVKLLLQVQHASKQISAEKQYKGIIDCVVRIPKEQGFLSFWRGNLANVIRYFPTQALNFAFKDKYKQIFLGGVDRHKQFWRYFAGNLASGGAAGATSLCFVYPLDFARTRLAADVGKGSSQREFNGLGDCLTKIFKSDGLKGLYQGFSVSVQGIIIYRAAYFGVYDTAKGMLPDPKNVHIIVSWMIAQSVTAVAGLVSYPFDTVRRRMMMQSGRKGADIMYTGTLDCWRKIAKDEGANAFFKGAWSNVLRGMGGAFVLVLYDEIKKYV
binding [1]: binds

B4: adaptor-related protein complex 3, beta 2 subunit (AP3b2) (protein, UniProt Q13367-1 1-1082)
chain: MSAAPAYSEDKGGSAGPGEPEYGHDPASGGIFSSDYKRHDDLKEMLDTNKDSLKLEAMKRIVAMIARGKNASDLFPAVVKNVACKNIEVKKLVYVYLVRYAEEQQDLALLSISTFQRGLKDPNQLIRASALRVLSSIRVPIIVPIMMLAIKEAASDMSPYVRKTAAHAIPKLYSLDSDQKDQLIEVIEKLLADKTTLVAGSVVMAFEEVCPERIDLIHKNYRKLCNLLIDVEEWGQVVIISMLTRYARTQFLSPTQNESLLEENAEKAFYGSEEDEAKGAGSEETAAAAAPSRKPYVMDPDHRLLLRNTKPLLQSRSAAVVMAVAQLYFHLAPKAEVGVIAKALVRLLRSHSEVQYVVLQNVATMSIKRRGMFEPYLKSFYIRSTDPTQIKILKLEVLTNLANETNIPTVLREFQTYIRSMDKDFVAATIQAIGRCATNIGRVRDTCLNGLVQLLSNRDELVVAESVVVIKKLLQMQPAQHGEIIKHLAKLTDNIQVPMARASILWLIGEYCEHVPRIAPDVLRKMAKSFTAEEDIVKLQVINLAAKLYLTNSKQTKLLTQYVLSLAKYDQNYDIRDRARFTRQLIVPSEQGGALSRHAKKLFLAPKPAPVLESSFKDRDHFQLGSLSHLLNAKATGYQELPDWPEEAPDPSVRNVEVPEWTKCSNREKRKEKEKPFYSDSEGESGPTESADSDPESESESDSKSSSESGSGESSSESDNEDQDEDEEKGRGSESEQSEEDGKRKTKKKVPERKGEASSSDEGSDSSSSSSESEMTSESEEEQLEPASWSRKTPPSSKSAPATKEISLLDLEDFTPPSVQPVSPPAIVSTSLAADLEGLTLTDSTLVPSLLSPVSGVGRQELLHRVAGEGLAVDYTFSRQPFSGDPHMVSVHIHFSNSSDTPIKGLHVGTPKLPAGISIQEFPEIESLAPGESATAVMGINFCDSTQAANFQLCTQTRQFYVSIQPPVGELMAPVFMSENEFKKEQGKLMGMNEITEKLMLPDTCRSDHIVVQKVTATANLGRVPCGTSDEYRFAGRTLTGGSLVLLTLDARPAGAAQLTVNSEKMVIGTMLVKDVIQALTQ
binding [2]: binds

B5: Ap3b2 (mouse) (protein, UniProt Q9JME5 1-1082)
chain: MSAAPAYSEDKGGSAGPGEPEYGHDPASGGIFSSDYKRHDDLKEMLDTNKDSLKLEAMKRIVAMIARGKNASDLFPAVVKNVACKNIEVKKLVYVYLVRYAEEQQDLALLSISTFQRGLKDPNQLIRASALRVLSSIRVPIIVPIMMLAIKEAASDMSPYVRKTAAHAIPKLYSLDSDQKDQLIEVIEKLLADKTTLVAGSVVMAFEEVCPERIDLIHKNYRKLCNLLIDVEEWGQVVIISMLTRYARTQFLSPTQNESLLEENPEKAFYGSEEDEAKGPGSEEAATAALPARKPYVMDPDHRLLLRNTKPLLQSRSAAVVMAVAQLYFHLAPKAEVGVIAKALVRLLRSHSEVQYVVLQNVATMSIKRRGMFEPYLKSFYIRSTDPTQIKILKLEVLTNLANETNIPTVLREFQTYIRSMDKDFVAATIQAIGRCATNIGRVRDTCLNGLVQLLSNRDELVVAESVVVIKKLLQMQPAQHGEIIKHLAKLTDNIQVPMARASILWLIGEYCEHVPKIAPDVLRKMAKSFTAEEDIVKLQVINLAAKLYLTNSKQTKLLTQYVLSLAKYDQNYDIRDRARFTRQLIVPSEQGGALSRHAKKLFLAPKPAPILESSFKDRDHFQLGSLSHLLNAKATGYQELPDWPEEAPDPSVRNVEVPEWTKCSNREKRKEKEKPFYSDSEGESGPTESADSEPESESESESKSSSGSGSGESSSESDNEEEDEEKGGGSESEQSEEEDEKKKKTKKKKASEGHREGSSSEEGSDSSSSSESEVTSESEEEQVEPASWRKKTPPGSKSAPVAKEISLLDLEDFTPPSVQPVSPPMVVSTSLAADLEGLTLTDSSLVPSLLSPVSSIGRQELLHRVAGEGLSVDYAFSRQPFSGDPHMVSLHIYFSNNSETPIKGLHVGTPKLPAGISIQEFPEIESLAPGESTTTVMGINFCDSTQAANFQLCTQTRQFYVSIQPPVGELMAPVFMSENEFKKEQGKLTGMNEITEKLTLPDTCRSDHMVVQKVTATANLGRVPCGTSDEYRFAGRTLTSGSLVLLTLDARAAGAAQLTVNSEKMVIGTMLVKDVIQALTQ
binding [3]: binds
